The values that follow come from paper doi:10.1101/2020.08.27.268672 (bioRxiv, 2020).

The target in the test is DarB fused to the T18 or T25 domain of CyaA (Bacillus subtilis 168) (UniProt O31698). Put plainly: two-hybrid.

Results are given in words; binding and its absence hold for the method and conditions named. Some entries that bind do so weakly or less than the wild type. Where a sequence is shown, tags or fusion partners need not be part of it.

B1: DarB fused to the T18 or T25 domain of CyaA (protein, UniProt O31698 2-147)
chain: ISLQSDQLLEATVGQFMIEADKVAHVQVGNNLEHALLVLTKTGYTAIPVLDPSYRLHGLIGTNMIMNSIFGLERIEFEKLDQITVEEVMLTDIPRLHINDPIMKGFGMVINNGFVCVENDEQVFEGIFTRRVVLKELNKHIRSLNK
Regarding B1, the binding entry is “binds”.
